Data reported in PubChem BioAssay AID504834 (National Center for Advancing Translational Sciences (NCATS), 2011).
About 22,000 (6.9%) of roughly 320,000 compounds were called active. The shares of active, inactive and inconclusive entries below differ from those in the screen. Calls follow the shape of the dose curve; as a rule, active = well fitted inhibition curve with a large enough effect; inconclusive = small, poorly fitted or top-dose-only effect, or another doubt; inactive = no such curve, though single readings can be large or run the other way. Potencies beside an inconclusive call are fits to weak or partial responses and may not hold up.

Test: Primary qHTS for delayed death inhibitors of the malarial parasite plastid, 96 hour incubation
Conditions: P. falciparum luciferase reporter growth; series mostly up to 28.7 µM; activity change, negative = inhibition: at the top concentration
Procedure, shortened: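 Parasite growth measured via integrated firefly luciferase reporter in P. falciparum. Infected erythrocytes at 2% hematocrit, 0.05% parasitemia final were treated 96 hours at 37 C under 5% CO2, and luminescence was read.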
% is scaled to controls: 0 for no effect and ±100 for the full control effect; potency is read from the fitted curve at half-maximal effect.

SMILES | Potency | activity change, negative = inhibition
CC(=O)Nn1cc2c(c1-c1ccccc1)c(=O)n(C)c(=O)n2C | inconclusive: 18.5 µM [inhibitor, single point] | 
O=C(NCCN1CCN(c2ccccc2F)CC1)C1CC(=O)N(C2CCCC2)C1 (stereo not given) | inconclusive: 11.7 µM [inhibitor, single point] | 
COc1cc(/C=N/O)ccc1OCc1ccccc1Cl |  | inactive: -12.5%
CCN(CC)S(=O)(=O)c1ccc2c(c1)c(=O)c(C(=O)N1CCN(c3ccccn3)CC1)cn2C | active: 0.522 µM | 
C/C=C/c1ccc(OCCNCc2ccccc2)c(OC)c1 | inconclusive: 10.4 µM [inhibitor, single point] | 
COc1cccc(Nc2nn3c(=O)c4ccccc4nc3s2)c1 | inconclusive: 2.62 µM [activator, full curve] | 
CCOc1ccc(C(=O)N(Cc2ccc(N(C)C)cc2)C2CCS(=O)(=O)C2)cc1 (stereo not given) |  | inactive: 17.3% [at 5.75 µM]
NC(=O)c1ccsc1NC(=O)COC(=O)CSc1ccc(Cl)cc1 |  | inactive: 2.7%
COc1ccccc1C(=O)NCCC(=O)N1CCN(C(C)=O)CC1 |  | inactive: 57.5%
Cc1cccc(C(=O)Oc2ccc(/C=N/NC(=O)c3ccccc3O)cc2)c1 |  | inactive: 0%
CN(C)C(=O)c1ccc(NC(=O)CN2C(=O)NC3(CCCc4ccccc43)C2=O)cc1 (stereo not given) | inconclusive: 18.5 µM [inhibitor, single point] | 
O=C(COC(=O)c1ccc(Br)cc1)NCc1ccccc1 |  | inactive: -7.09%
OCc1cn(-c2ccccc2)nc1-c1ccc(-c2nn(-c3ccccc3)cc2CO)cc1 |  | inactive: 272%
O=C(NNS(=O)(=O)c1ccc2ccccc2c1)C1CCN(Cc2ccccc2)CC1 |  | inactive: 13.7%
O=S(=O)(Nc1ccc2ccccc2n1)c1ccccc1 |  | inactive: 29.7%
CC(C)(C)c1nc(SCC(=O)NCc2cccs2)c2ccccc2n1 |  | inactive: 22.6%
O=C(c1cccc(COc2ccc(Cl)cc2Cl)c1)N1CCN(c2ccccn2)CC1 |  | inactive: 22.8%
Clc1ccc(CC[C@H](Cn2ccnc2)Sc2c(Cl)cccc2Cl)cc1 | active: 2.03 µM | 
O=C(N/N=C/c1ccccc1C(=O)O)c1ccncc1 |  | inactive: 8.59%
O=C1c2ccccc2CC1(Cc1ccccc1)Cc1ccccc1 | inconclusive: 10.4 µM [inhibitor, single point] | 
COc1ccc(S(=O)(=O)Nc2c(O)c3ccccc3oc2=O)cc1 |  | inactive: 0.553%
COc1ccc(-c2nc(-c3ccncc3)no2)cc1OC | inconclusive: 10.4 µM [inhibitor, partial curve] | 
CC(NCc1cccc(OCc2ccccc2)c1)C(O)c1ccccc1 (stereo not given) | inconclusive: 18.5 µM [inhibitor, single point] | 
CC(C)(C)n1cnnc1Sc1ncccc1[N+](=O)[O-] |  | inactive: 2.79%
O=C(O)c1ccc(/C=N/NC(=O)c2ccc(CN3c4cccc5cccc(c45)S3(=O)=O)cc2)cc1 | inconclusive: 0.0026 µM [inhibitor, full curve, poor fit] | 

SMILES | Potency | activity change, negative = inhibition
Cc1cc(SCC(=O)OCC(=O)N(C)c2ccccc2)nc2ccccc12 |  | inactive: 3.63%
Cc1ccsc1C(=O)NC(C)c1ccc2c(c1)OCO2 (stereo not given) |  | inactive: 14.8%
COCCn1c(=O)c2c(nc3n2CCCN3CCc2ccc(OC)c(OC)c2)n(C)c1=O | inconclusive: 2.62 µM [inhibitor, full curve, poor fit] | 
O=C(CSc1ncccn1)N1CCCc2ccccc21 | inconclusive: 18.5 µM [inhibitor, single point] | 
CC(=O)c1c(C)[nH]c(C(=O)OCC(=O)N(Cc2ccccc2)C(C)(C)C)c1C | inconclusive: 18.5 µM [inhibitor, single point] | 
COc1cc2ncc(S(=O)(=O)c3ccccc3)c(N3CCCC(C)C3)c2cc1OC (stereo not given) |  | inactive: 11%
Cc1ccc(-c2c(C(=O)N/N=C/c3ccoc3)nnn2-c2nonc2N)cc1 | active: 3.29 µM | 
COCCCNC(NC(=O)c1ccc(Br)cc1)C(Cl)(Cl)Cl (stereo not given) |  | inactive: 36.5%
COc1ccc(C(=O)Nc2nnc(SCC(=O)NCc3ccco3)s2)c(OC)c1 |  | inactive: 16.4%
CCN(CC(=O)Nc1ccccc1C(F)(F)F)C(=O)c1ccc(N2CCCC2=O)cc1 | inconclusive: 11.7 µM [inhibitor, single point] | 
CN(CCO)c1nc(N)c2c(N)nc3c(c2c1C#N)CC(=O)N3C1CCCC1 | inconclusive: 16.5 µM [inhibitor, single point] | 
COc1cc(/C=C(\C#N)C(=O)N2CCc3ccccc32)ccc1O | inconclusive: 13.1 µM [inhibitor, single point] | 
Cc1ccc(S(=O)(=O)N2CCN(c3ccccc3)CC2)cc1C | inconclusive: 18.5 µM [inhibitor, single point] | 
O=C(Nc1ccon1)c1ccc(Cl)c(S(=O)(=O)N2CCCCC2)c1 |  | inactive: 9.49%
N#Cc1ccccc1OCC(=O)Nc1cccc(S(=O)(=O)N2CCCC2)c1 | inconclusive: 16.5 µM [inhibitor, partial curve, poor fit] | 
CN(C)CCCn1c(SCC(=O)N2c3ccccc3Sc3ccccc32)nc2ccccc2c1=O | active: 4.15 µM | 
O=C(Cc1ccc(Cl)cc1)NCCN1CCN(C(=O)Cc2ccc(Cl)cc2)CC1 | inconclusive: 14.7 µM [inhibitor, single point] | 
COc1ccc(CN(C(=O)c2snc(C(N)=O)c2N)C(C(=O)NC2CCCC2)c2ccco2)cc1 (stereo not given) | inconclusive: 18.5 µM [inhibitor, single point] | 
COc1ccc(S(=O)(=O)N(C)c2ccc(C(=O)Nc3cccnc3)cc2)cc1 | inconclusive: 10.4 µM [inhibitor, single point] | 
O=C(OCc1cccc(C(F)(F)F)c1)c1cc([N+](=O)[O-])ccc1N1CCOCC1 | inconclusive: 13.1 µM [inhibitor, single point] | 
S=c1[nH]nc(Cc2cccs2)n1-c1ccccc1Cl | inconclusive: 9.28 µM [inhibitor, single point] | 
CNC(=S)N(CCc1c(C)[nH]c2ccc(Cl)cc12)Cc1cccnc1 | inconclusive: 3.29 µM [inhibitor, partial curve, poor fit] | 
O=C(Nc1ccc([N+](=O)[O-])cc1)Nc1ccc([N+](=O)[O-])cc1 | active: 2.39 µM | 
CCCN1CCC(=O)N([C@H](CO)c2ccccc2)CC1 |  | inactive: -34.5%
N#CC1C(C#N)N2CCCN2C1c1ccc(Br)cc1 (stereo not given) |  | inactive: -20.9%

SMILES | Potency | activity change, negative = inhibition
CN1CCCC(C(=O)c2ccc(-c3ccccc3)cc2)C1 (stereo not given) | inconclusive: 18.5 µM [inhibitor, single point] | 
N#C/C(=C\c1cn[nH]c1-c1ccccc1)C(=O)NC1CCCCCC1 | inconclusive: 0.465 µM [inhibitor, partial curve, poor fit] | 
COc1ccc2cc(CCNC(=O)c3c(-c4ccccc4Cl)noc3C)c(=O)[nH]c2c1 | inconclusive: 11.7 µM [inhibitor, single point] | 
COc1ccc2nc3oc(C(=O)N4CCCCC4)cc3cc2c1 | inconclusive: 5.22e-05 µM [inhibitor, full curve, poor fit] | 
O=[N+]([O-])c1ccc(SCc2ccco2)cc1N1CCOCC1 |  | inactive: -10.5%
COc1ccc(C(=O)C2CCN(S(=O)(=O)c3ccc4c(c3)OCCO4)CC2)cc1 | inconclusive: 0.0029 µM [inhibitor, full curve, poor fit] | 
Oc1ccc(/C=N/Nc2ccnc3cc(Cl)ccc23)c(O)c1 | active: 0.37 µM | 
O=S(=O)(Nc1ccc(-n2cnnn2)cc1)c1cccc(F)c1 |  | inactive: 1.27%
C#CCOCCOCCOCCNc1nc(N2CCN(C(=O)[C@H]([C@@H](C)O)n3cc(CCCCN)nn3)CC2)nc(N2CCN(C(=O)[C@H]([C@@H](C)CC)n3cc(CCCN=C(N)N)nn3)CC2)n1 | active: 4.65 µM | 
O=C(O)c1ccccc1NN=C1CCCCC1 |  | inactive: 119%
O=C1c2cccc3cc([N+](=O)[O-])cc(c23)C(=O)N1CCN1CCCC1 | inconclusive: 5.22 µM [inhibitor, partial curve] | 
COc1ccccc1CN1CCNC(=O)C1CC(=O)NC1Cc2ccccc2C1 (stereo not given) |  | inactive: 313%
COc1nc(N)nc2nc[nH]c12 |  | inactive: 18.5%
CCC(=O)N1N=C(c2cccs2)CC1c1ccc(C)cc1 (stereo not given) | inconclusive: 3.29 µM [inhibitor, partial curve, poor fit] | 
CCCn1cc(CN2CCN(Cc3ccc(C)o3)C(CCO)C2)c(C)n1 (stereo not given) | inconclusive: 13.1 µM [inhibitor, single point] | 
Cc1cc(=O)oc2cc(OCCCN3C(=O)c4ccccc4C3=O)ccc12 | inconclusive: 18.5 µM [inhibitor, single point] | 
Cc1ccc(S(=O)(=O)CCC(=O)OCC(=O)NCc2ccc(Cl)cc2)cc1 |  | inactive: -1.18%
O=C1CC(c2ccccc2)Cc2nc(NC3CC3)ncc21 (stereo not given) | inconclusive: 0.0037 µM [inhibitor, full curve, poor fit] | 
COc1ccc(CNc2ncnc3c2[nH]c2ccccc23)cc1 | active: 1.65 µM | 
O=c1c2oc3nc4c(cc3c2ncn1CCCc1ccccc1)CCCC4 | inconclusive: 18.5 µM [inhibitor, single point] | 
COc1ccccc1NC(=O)N1CCC(c2nc3ccccc3o2)CC1 | active: 23.3 µM | 
Cc1cccc(C(=O)OCC(=O)Nc2ccccc2C(=O)NC2CC2)c1 | inconclusive: 18.5 µM [inhibitor, single point] | 
O=C(NCc1ccccc1)C1=C[C@H](C2CCCCC2)C[C@H](OCc2ccc(CO)cc2)O1 | inconclusive: 10.4 µM [inhibitor, single point] | 
O=C1C2C(c3ccccc3)C=CC(c3ccccc3)C2C(=O)N1c1ccccn1 (stereo not given) | active: 1.31 µM | 
CCOC(=O)C1(CCCc2ccccc2)CCN(C2CCSCC2)CC1 | inconclusive: 18.5 µM [inhibitor, single point] | 

Three compounds from above, ordered by heavy-atom count, descending.
SMILES | Potency | activity change, negative = inhibition
CCCn1cc(CN2CCN(Cc3ccc(C)o3)C(CCO)C2)c(C)n1 (stereo not given) | inconclusive: 13.1 µM [inhibitor, single point] | 
O=C1c2cccc3cc([N+](=O)[O-])cc(c23)C(=O)N1CCN1CCCC1 | inconclusive: 5.22 µM [inhibitor, partial curve] | 
O=C1CC(c2ccccc2)Cc2nc(NC3CC3)ncc21 (stereo not given) | inconclusive: 0.0037 µM [inhibitor, full curve, poor fit] | 
